The nature of this data set: general procedure: Fmoc solid-phase peptide synthesis; 2-chlorotrityl chloride resin; HBTU/HOBT, DIPEA.

Our source for the step yield and conjugation yield values is patent publication US12473377B2 (Synthis Therapeutics, Inc., priority 2016, dated 2025).

As to “(2R,5S,8S,11S,14S,19S)-19-(2-(tert-butoxy carbonyl aminooxy)acetamido)-5,8, 14-tris(carboxymethyl)-11-(3-guanidinopropyl)-2-(((2-(methyl(2-(4-(4-(4-(6-methylpyridin-2-yl)-1H-pyrazol-3-yl)pyridin-2-l)phenoxy)ethyl)carbamoyloxy)ethyl)disulfanyl)methyl)-4,7,10, 13,16-pentaoxo-3,6,9,12,15-pentaazaicosane-1,20-dioic acid”, under “late stage modification step”, the step yield came to 33%. With “(2R,5S,8S,11S,14S,19S)-19-amino-5,8,14-tris (carboxy methyl)-11-(3-guanidinopropyl)-2-(((2-(methyl(2-(4-(4-(4-(6-methylpyridin-2-yl)-1H-pyrazol-3-yl)pyridin-2-yl)phenoxy)ethyl)carbamoyloxy)ethyl)disulfanyl) methyl)-4,7,10,13,16-pentaoxo-3,6,9,12,15-pentaazaicosane-1,20-dioic acid”, for the setting “conjugation step”, the conjugation yield is given as 31%.
